Some of these results come from one statement about several compounds together.
Target: T1, D2^high (Rattus norvegicus, UniProt P61169)
T1 construct: membrane-containing homogenates of rat corpus striatum tissue; from tissue; host or cells: rat corpus striatum
Assay: Competitive radioreceptor binding, D2 high-affinity state, rat striatum [3H]domperidone

Amino acid sequences for entries named in this document (tags omitted).
UniProt P61169, whole entry: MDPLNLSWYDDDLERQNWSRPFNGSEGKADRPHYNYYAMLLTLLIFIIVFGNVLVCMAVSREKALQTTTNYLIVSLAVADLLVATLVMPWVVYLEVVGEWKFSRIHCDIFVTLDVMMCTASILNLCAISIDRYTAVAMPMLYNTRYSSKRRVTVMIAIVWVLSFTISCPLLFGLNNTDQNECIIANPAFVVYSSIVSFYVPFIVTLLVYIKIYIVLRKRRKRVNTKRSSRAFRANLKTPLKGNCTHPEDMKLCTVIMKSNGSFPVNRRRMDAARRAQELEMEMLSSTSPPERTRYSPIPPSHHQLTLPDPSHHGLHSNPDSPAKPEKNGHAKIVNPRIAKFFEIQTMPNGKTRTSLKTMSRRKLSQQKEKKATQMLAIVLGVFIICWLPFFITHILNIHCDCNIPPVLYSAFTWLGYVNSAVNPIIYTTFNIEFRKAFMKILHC

CCCN1CCc2cc(F)cc3c2[C@H]1Cc1ccc(O)c(O)c1-3 [2c, 2-F-NPA, reference compound]
Ki D2^high: 5.1 to 2.7 nM

Source: patent publication US9517279B2, “2-alkoxy-11-hydroxyaporphine derivatives and uses thereof” (The McLean Hospital Corporation, priority 2010, dated 2016)
